Data as given in PubChem BioAssay AID504786 (Drosophila RNAi Screening Center, 2011)

Screen: 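Fly genes required for HIF-dependent transcription when hypoxia is mimicked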 (primary screen)
Cell system: Drosophila S2 cells with a stable HIF luciferase reporter
Knock-down reagent: long dsRNA against Drosophila genes, about 0.2 µg dsRNA per well of a 384-well plate
Time to read-out: three days of knock-down, then 20 h of DFO before reading
Conditions: desferrioxamine (DFO) at 100 µM, an iron chelator that mimics hypoxia, for 20 h
Measurement: 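HIF reporter luminescence in cells given 100 µM DFO for 20 h, using the mouse ldh-a hypoxia-response element, scored as per-plate z-scores; higher means greater loss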
Scale: z-score: higher = stronger loss of HIF reporter signal
The screen tested about 21,000 reagents; below is a random part of those with a known target gene and a result. 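Primary screen; positive scores mean lost reporter signal, so the sign may be inverted from the usual convention.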 The numbers tell different reagents against one gene apart. Names joined by + are all predicted targets of the reagent. Reagent sequences are not shown.

With knock-down of Sec71 (GeneID 34785), the record shows z-score, replicate 1 = -0.3; z-score, replicate 2 = -0.8.
For rdo (GeneID 35077), the values are z-score, replicate 1 = 0.3; z-score, replicate 2 = 1.1.
Knock-down of Gprk2 (GeneID 49045) came out at: z-score, replicate 1 = -0.1; z-score, replicate 2 = -0.5.
With knock-down of CAH8 (GeneID 42625), the record shows z-score, replicate 1 = -0.6; z-score, replicate 2 = -0.3.
For Elovl7 (GeneID 40943), the entry reads z-score, replicate 1 = 0; z-score, replicate 2 = 0.2.
Silencing of Hr78 (GeneID 40378) came out at: z-score, replicate 1 = -0.3; z-score, replicate 2 = 0.
Against Septin1 (GeneID 33114), the values are z-score, replicate 1 = 0.1; z-score, replicate 2 = 0.1.
CG13272 (GeneID 35013) gave z-score, replicate 1 = -0.3; z-score, replicate 2 = -0.5.
After knock-down of CG10841 (GeneID 41665) the results were z-score, replicate 1 = -0.4; z-score, replicate 2 = 0.
For Ada2b (GeneID 40966), the values are z-score, replicate 1 = 0; z-score, replicate 2 = 0.5.
After knock-down of Sfxn1-3 (GeneID 40552), the record shows z-score, replicate 1 = -0.3; z-score, replicate 2 = -0.2.
Knock-down of Tektin-A (GeneID 34934) gave: z-score, replicate 1 = -0.3; z-score, replicate 2 = -0.5.
For CG12133 (GeneID 36036), the values are z-score, replicate 1 = -0.2; z-score, replicate 2 = -0.3.
With knock-down of slow (GeneID 38540) #1, the screen gave z-score, replicate 1 = -0.4; z-score, replicate 2 = -0.4.
After knock-down of slow (GeneID 38540) #2 the results were z-score, replicate 1 = -0.3; z-score, replicate 2 = -0.7.
With knock-down of uif (GeneID 33983) #1, the screen gave z-score, replicate 1 = 0.4; z-score, replicate 2 = 0.5.
After knock-down of uif (GeneID 33983) #2, the record shows z-score, replicate 1 = -0.4; z-score, replicate 2 = -0.5.
After knock-down of Reps (GeneID 34542) the results were z-score, replicate 1 = -0.4; z-score, replicate 2 = -0.4.
Silencing of Cdc50 (GeneID 32615) gave: z-score, replicate 1 = -0.2; z-score, replicate 2 = -0.5.
Knock-down of Cht5 (GeneID 41687) came out at: z-score, replicate 1 = -0.4; z-score, replicate 2 = -0.3.
Depletion of Non2 (GeneID 38341) resulted in: z-score, replicate 1 = -0.1; z-score, replicate 2 = 0.
After knock-down of CG18748 (GeneID 59144), the screen gave z-score, replicate 1 = -0.5; z-score, replicate 2 = -0.6.
After knock-down of nesd (GeneID 35298), the screen gave z-score, replicate 1 = -0.1; z-score, replicate 2 = 0.1.
With knock-down of CG15194 (retired record) (GeneID 32091) #1, the screen gave z-score, replicate 1 = -0.1; z-score, replicate 2 = -0.5.
CG15194 (retired record) (GeneID 32091) #2 showed z-score, replicate 1 = 0; z-score, replicate 2 = -0.7.
With knock-down of CG8671 (GeneID 35400) #1, the record shows z-score, replicate 1 = -0.2; z-score, replicate 2 = -0.6.
Silencing of CG8671 (GeneID 35400) #2 resulted in: z-score, replicate 1 = -0.3; z-score, replicate 2 = -0.4.
For CG10598 (GeneID 32713) the deposit lists z-score, replicate 1 = 0.2; z-score, replicate 2 = 0.8.
Silencing of Rab35 (GeneID 33014) came out at: z-score, replicate 1 = -0.5; z-score, replicate 2 = -0.4.
Prosalpha6T (GeneID 34726) showed z-score, replicate 1 = -0.3; z-score, replicate 2 = 0.1.
For FER (GeneID 41118) #1, the entry reads z-score, replicate 1 = -0.2; z-score, replicate 2 = 0.5.
With knock-down of FER (GeneID 41118) #2 the results were z-score, replicate 1 = 0.1; z-score, replicate 2 = -0.2.

2 of these entries, set out differently.
{"gene knocked down": "Reps (GeneID 34542)", "reagent": 1, "z-score, replicate 1": -0.4, "z-score, replicate 2": -0.4}
{"gene knocked down": "Cdc50 (GeneID 32615)", "reagent": 1, "z-score, replicate 1": -0.2, "z-score, replicate 2": -0.5}

The results go on:
Silencing of BORCS6 (GeneID 38068) gave: z-score, replicate 1 = -0.3; z-score, replicate 2 = -0.2.
Silencing of CG14442 (GeneID 31609) came out at: z-score, replicate 1 = -0.3; z-score, replicate 2 = -0.6.
Knock-down of CG11791 (GeneID 43000) gave: z-score, replicate 1 = 0.1; z-score, replicate 2 = 0.2.
With knock-down of Srp19 (GeneID 38815), the screen gave z-score, replicate 1 = -0.7; z-score, replicate 2 = -1.2.
Depletion of CG8774 (GeneID 41635) resulted in: z-score, replicate 1 = 0.1; z-score, replicate 2 = 0.3.
For CG17567 (retired record) (GeneID 50468), the entry reads z-score, replicate 1 = -0.3; z-score, replicate 2 = -0.5.
Knock-down of cyr (GeneID 31733) #1 came out at: z-score, replicate 1 = -0.2; z-score, replicate 2 = -0.1.
Knock-down of cyr (GeneID 31733) #2 came out at: z-score, replicate 1 = -0.3; z-score, replicate 2 = -0.5.
Against cyr (GeneID 31733) #3 the deposit lists z-score, replicate 1 = -0.1; z-score, replicate 2 = -0.7.
Knock-down of CG34404 (GeneID 41873) #1 resulted in: z-score, replicate 1 = -0.2; z-score, replicate 2 = -0.2.
With knock-down of CG34404 (GeneID 41873) #2, the record shows z-score, replicate 1 = 0.1; z-score, replicate 2 = 0.
With knock-down of Zip99C (GeneID 43533) the results were z-score, replicate 1 = -0.3; z-score, replicate 2 = -0.5.
After knock-down of fabp + sea #1, the screen gave z-score, replicate 1 = -0.2; z-score, replicate 2 = 0.1.
With knock-down of fabp + sea #2 the results were z-score, replicate 1 = -0.4; z-score, replicate 2 = -0.5.
CG33792 (GeneID 3772111) scored z-score, replicate 1 = -0.2; z-score, replicate 2 = 0.1.
CG11037 (GeneID 40317) scored z-score, replicate 1 = -0.3; z-score, replicate 2 = -0.1.
For Tnks (GeneID 43095), the entry reads z-score, replicate 1 = 0.1; z-score, replicate 2 = 1.4.
CG12384 (GeneID 36224) showed z-score, replicate 1 = -0.2; z-score, replicate 2 = -0.5.
CG13002 (GeneID 32681) scored z-score, replicate 1 = 0; z-score, replicate 2 = 0.3.
